Measurements as given in patent publication US20050123923A1.
Results are given in words; binding and its absence hold for the method and conditions named. Some results given as binding are weak or reduced against the parent protein; the word gives no strength.

The chains behind the UniProt entries cited, without tags or fusion partners. Where a name states a change or a piece, a line headed by the entry shows the natural chain unless it says otherwise. Residues count along the entry.
UniProt P0DQD5: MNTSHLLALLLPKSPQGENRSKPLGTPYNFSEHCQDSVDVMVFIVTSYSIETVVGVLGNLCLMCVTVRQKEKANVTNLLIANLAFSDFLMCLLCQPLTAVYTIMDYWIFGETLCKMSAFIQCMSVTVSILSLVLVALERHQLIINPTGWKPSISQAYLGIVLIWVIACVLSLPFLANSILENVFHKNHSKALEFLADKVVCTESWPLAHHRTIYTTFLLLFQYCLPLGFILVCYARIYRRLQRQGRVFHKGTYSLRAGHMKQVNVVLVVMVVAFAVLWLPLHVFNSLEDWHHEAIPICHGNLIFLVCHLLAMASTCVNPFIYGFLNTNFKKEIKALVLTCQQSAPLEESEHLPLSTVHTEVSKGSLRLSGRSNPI
UniProt P01298, residues 30-65: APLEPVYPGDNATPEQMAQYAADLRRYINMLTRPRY

Molecular target: human PPY1 receptor mutant 826 (codon 276, Val->Met) (Construct 3) (human) (UniProt P0DQD5)
Assay: radioligand competition (summary of the examples)

“human pancreatic polypeptide (hPP) (from UniProt P01298 30-65)” was tested, and the binding was “binds”.
